Experimental data taken from PMC5534433.

T1: C-terminal FLAG-TEV-ProtA-tagged Rqt1 (Hel2) (S. cerevisiae) (UniProt Q05580)
T1 sequence: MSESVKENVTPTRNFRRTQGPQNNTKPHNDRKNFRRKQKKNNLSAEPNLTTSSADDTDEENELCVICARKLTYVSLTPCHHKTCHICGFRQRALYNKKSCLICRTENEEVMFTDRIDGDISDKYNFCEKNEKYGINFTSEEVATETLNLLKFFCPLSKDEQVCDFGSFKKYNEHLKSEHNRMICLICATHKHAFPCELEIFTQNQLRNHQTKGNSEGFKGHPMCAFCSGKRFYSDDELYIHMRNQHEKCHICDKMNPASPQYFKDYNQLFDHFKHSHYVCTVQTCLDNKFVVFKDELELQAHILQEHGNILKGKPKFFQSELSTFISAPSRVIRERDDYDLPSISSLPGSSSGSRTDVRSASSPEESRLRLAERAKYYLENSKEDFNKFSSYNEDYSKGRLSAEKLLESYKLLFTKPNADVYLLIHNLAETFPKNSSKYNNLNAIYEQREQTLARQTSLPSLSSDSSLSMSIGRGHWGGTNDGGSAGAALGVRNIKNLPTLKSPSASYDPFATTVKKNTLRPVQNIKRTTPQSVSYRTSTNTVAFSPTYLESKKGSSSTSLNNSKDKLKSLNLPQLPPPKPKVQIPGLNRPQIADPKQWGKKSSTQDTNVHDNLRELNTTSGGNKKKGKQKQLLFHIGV

B1: Cue3 (coupling of ubiquitin conjugation to ER degradation 3) / Rqt3 (protein, UniProt P53137 1-624)
chain: MLSRYNRVIEINGGNADISLPIVKFPPFKLRAQLIEKDPVVWLHLIETYVTYFEYLMQGANVELLDESTLDHLRLFLRTYLHEIADEEGKLLSLGINHDVSEQLYLLKGWIFSLIKKCGLLHLQIFGDSLWNLIKVYVRRNPDSIRGLIDGSLKPRINTQRVQLDKSYQVQQHLKQLIESGKFKRIDLRCVEDLLSAKSMQPNKFAENFFTANWIEILEALWAKGQGRGHKEARELIIISLFSVSADRLLKITKELGISNFETLALYPLLGTMLINEGVHKRLPDLKSKLLFLNLGGLSMDEGDHMSYPTSSGTEVNEEQLSALMELFPQFSKYQLSQTLLAYDNNIELVTNKIFEDPTIIEAFSREPAEEEVEPVSDGDNASFTEELSILDRGDSSKNKELDKKIISEGVPDELRNKTLTRALKLLYEADEDERDDTYDEADVNRSDPSKRIGLQEDEESYDTKDDSNEVRQDHNYHIVEAYLWNLLKEDPKLFERSKRGTKVRKTMKEMTSWSDEKIEGWCRMLERSPTRARLLEKKFMFKGNSKTGKTSYVHNRDSQNDGNVVKEQAKQKKSENIKKHEPQSTEQKKRQHAKNEKRKGARANHNRKKGHDKKLARAGNNAI
B2: YKR023W / Rqt4 (protein, UniProt P36119 1-530)
chain: MTRKQAIDYAIKQVPQILPLEESDVKALCEQVLSTSSDDPEQIASKFLEFLGHEDLSFEFVMKFNELLNQNDKKEEKKTKNVHLEHTAPTSWKNESKQPTNNYINKKGDEKPKKLKDEKKSSTTRPTVQPSNQSTQSNPIKEKKEHRSKGKLQSLQEIDEAIKMLELRDSGSSKNCNCQGTRHPVFDIAPNCLHCGKVVCVIEGLNKGKCGHCHEQLISDNERTQMVEILNQEKNELNGSSSSLSNASNGANVPKKKTKTYKITSGMGKNLFAEQDKLFDFIERKRERERKRNEVLKLQEEKEESEAKERQASEHDHKAEENPELLAAQERLDRLLYFQDTSAERTKIIDNASDFDMNQEVGLWGSARERALALKKQQRNLRKWEKVEKERNGRREKYVVSMNIGSNGKVTMTEVPKDTENVIAGSDDDISDISDEEDISDLKHIHALKSEINTTKSLENLHLQSKAWDYERDKKQFDRPTYVKKNSDTAQQNRKTEEKAHDMQAYDLKSRVQVDQNADASVEQNILAVL
B3: Ubiquitinated uS10 (40S ribosomal protein) (protein, UniProt P38701 1-121)
chain: MSDFQKEKVEEQEQQQQQIIKIRITLTSTKVKQLENVSSNIVKNAEQHNLVKKGPVRLPTKVLKISTRKTPNGEGSKTWETYEMRIHKRYIDLEAPVQIVKRITQITIEPGVDVEVVVASN
modifications: ubiquitinated (mono- or di-ubiquitinated; ubiquitination sites K6 and K8)

Target: T1, C-terminal FLAG-TEV-ProtA-tagged Rqt1 (Hel2) (S. cerevisiae)
Test: affinity purification with mass spectrometry; Rqt1-FTP from yeast lysate on IgG-conjugated Dynabeads, TEV elution; Rqt1-ribosome complex on SDS-PAGE, bands identified by MS; 50 mM Tris pH 7.5, 100 mM NaCl, 10 mM MgCl2, 0.01% NP-40, 1 mM DTT

Binder	binding
B1	binds
B2	binds
B3	binds

No constants are given. Whether binding was seen depends on the method and setting. In cells and extracts the contact can be indirect. A yes stands for co-enrichment or nearness to the bait. Other partners may have been found. Sequences can lack the tags named with a protein.
